Values from PubChem BioAssay AID686938 (Drosophila RNAi Screening Center, 2013).

Assay: 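Looking for CRAC channel components and the factors controlling them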 (primary screen)
Cell system: Drosophila S2R+ cells
Reagents: long dsRNA against Drosophila genes, about 0.25 µg dsRNA per well, roughly 10,000 cells
Timing: 5 days of knock-down before the calcium assay
Conditions: thapsigargin (SERCA pump blocker) to empty calcium stores; entry signal taken 4 min after adding it
Read-out: 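Duplicate raw fluo-4 intensities per well from a plate reader, at rest and four minutes after thapsigargin emptied calcium stores; entry-to-rest ratio filled for only some wells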
Scale: calcium entry signal: higher = stronger calcium signal after store depletion; resting calcium signal: higher = higher resting calcium signal
Active means: 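Hit if the duplicate-averaged plate z-score for entry over resting signal is under −3; wells with weak total dye signal (Fmax z < −2) or more than 5 off-targets removed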
Calls: active = strongly reduced calcium entry; inactive = no strong reduction
The deposit covers about 23,000 reagents; shown is an unselected part of those with a known target gene and a result. Of all reagents, 75 (0.33%) are marked active. 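Raw plate signals without normalisation; calls rest on plate z-scores that were not deposited; ratio present for only 364 wells.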 Names joined by + are all predicted targets of the reagent. The record does not give: the dose of the treatment.

no.	Gene	DRSC id	calcium entry signal, replicate 1 (fluorescence units)	calcium entry signal, replicate 2 (fluorescence units)	resting calcium signal, replicate 1 (fluorescence units)	resting calcium signal, replicate 2 (fluorescence units)	Call
1	Arpc3B	DRSC20126	2.69e7	2.04e7	1.77e7	1.22e7	inactive
2	Ald2	DRSC14730	3.05e7	4.14e7	1.55e7	1.99e7	inactive
3	Ald2	DRSC15799	2.45e7	5.55e7	1.57e7	2.68e7	inactive
4	Akh	DRSC08138	3.58e7	3.76e7	1.90e7	1.76e7	inactive
5	RabX4	DRSC22189	3.65e7	4.92e7	1.74e7	2.64e7	inactive
6	Brf	DRSC13228	3.14e7	2.24e7	1.50e7	1.03e7	inactive
7	Brf	DRSC14166	3.16e7	4.33e7	1.47e7	7.79e7	inactive
8	Brf	DRSC14167	3.00e7	4.58e7	1.40e7	8.06e7	inactive
9	Targ2	DRSC21970	2.11e7	8.05e7	1.14e7	3.50e7	inactive
10	CG34367	DRSC02238	4.19e7	6.64e7	2.02e7	2.61e7	inactive
11	CG34367	DRSC02850	3.33e7	5.90e7	1.70e7	2.27e7	inactive
12	Actn3	DRSC14106	2.71e7	4.92e7	1.45e7	6.12e7	inactive
13	IPIP	DRSC02164	4.90e7		2.72e7		inactive
14	CG5139	DRSC00681	4.29e7	4.78e7	1.97e7	2.12e7	inactive
15	Sar1	DRSC17049	2.11e7	2.81e7	1.17e7	1.33e7	inactive
16	Sar1	DRSC22115	3.52e7	3.95e7	1.76e7	2.00e7	inactive

3 entries from above, reformatted.
Gene	DRSC id	calcium entry signal, replicate 1 (fluorescence units)	calcium entry signal, replicate 2 (fluorescence units)	resting calcium signal, replicate 1 (fluorescence units)	resting calcium signal, replicate 2 (fluorescence units)	Call
CG5139	DRSC00681	4.29e7	4.78e7	1.97e7	2.12e7	inactive
Sar1	DRSC17049	2.11e7	2.81e7	1.17e7	1.33e7	inactive
Sar1	DRSC22115	3.52e7	3.95e7	1.76e7	2.00e7	inactive

Additional records follow:
no.	Gene	DRSC id	calcium entry signal, replicate 1 (fluorescence units)	calcium entry signal, replicate 2 (fluorescence units)	resting calcium signal, replicate 1 (fluorescence units)	resting calcium signal, replicate 2 (fluorescence units)	Call
17	Burs	DRSC14595	2.13e7	3.17e7	1.29e7	4.45e7	inactive
18	CG8483	DRSC16430	4.09e7	4.84e7	1.68e7	2.03e7	inactive
19	CG2614	DRSC02711	4.29e7	1.79e7	1.93e7	1.02e7	inactive
20	hpRNA:CR18854 + IP3K1	DRSC02218	5.90e7		2.55e7		inactive
21	Art6	DRSC16583	3.53e7	4.05e7	1.69e7	6.92e7	inactive
22	E(z)	DRSC11147	3.81e7	2.49e7	2.57e7	1.10e7	inactive
23	slmb	DRSC17056	3.88e7	3.64e7	1.69e7	1.54e7	inactive
24	ND-B18	DRSC19947	4.33e7	2.97e7	2.04e7	1.34e7	inactive
